From PMC3983220 come the findings set out here.

Assay in all cases: fluorescence anisotropy
Data set [1] deals with T1, D146A ΔhPus1p (Homo sapiens) (UniProt Q9Y606).
T1 sequence (looked up): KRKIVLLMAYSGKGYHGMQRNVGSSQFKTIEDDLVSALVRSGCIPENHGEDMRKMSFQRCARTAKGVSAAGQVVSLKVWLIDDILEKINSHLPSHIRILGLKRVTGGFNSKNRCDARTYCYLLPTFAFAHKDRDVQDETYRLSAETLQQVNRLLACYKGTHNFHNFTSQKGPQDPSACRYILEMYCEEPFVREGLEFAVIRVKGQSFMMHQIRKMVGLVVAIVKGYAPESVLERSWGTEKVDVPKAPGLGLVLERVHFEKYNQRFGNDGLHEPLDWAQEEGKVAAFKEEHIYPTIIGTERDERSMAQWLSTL
To be noted: n=1; 5-fluorouridine at U206-equivalent position (index in oligo not given); 10 mM HEPES pH 7.0, 150 mM NaCl, 5 mM MgCl2, 5 mM TCEP, 20°C; RNA fixed at 1 µM; recombinant protein; residues 83-394; protein details: N-terminal 9xHis, TEV-cleaved; label: 5'-fluorescein; letters put together from the description.

Another data set addresses T2, FL hPus1p (Homo sapiens) (UniProt Q9Y606).
T2 sequence (looked up, limits assumed): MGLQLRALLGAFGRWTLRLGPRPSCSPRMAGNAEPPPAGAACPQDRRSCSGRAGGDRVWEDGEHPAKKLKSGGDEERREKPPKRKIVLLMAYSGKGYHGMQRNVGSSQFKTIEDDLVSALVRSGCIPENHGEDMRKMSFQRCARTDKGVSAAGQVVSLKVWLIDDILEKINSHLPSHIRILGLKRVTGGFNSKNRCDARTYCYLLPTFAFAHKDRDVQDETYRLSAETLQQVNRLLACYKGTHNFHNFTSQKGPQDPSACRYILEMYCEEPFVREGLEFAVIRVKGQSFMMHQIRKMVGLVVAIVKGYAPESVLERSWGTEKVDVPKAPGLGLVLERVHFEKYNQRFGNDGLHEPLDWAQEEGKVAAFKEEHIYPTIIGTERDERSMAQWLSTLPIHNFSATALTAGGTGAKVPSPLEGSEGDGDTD
As to conditions: 5-fluorouridine at U206-equivalent position (index in oligo not given), 10 mM HEPES pH 7.0, 150 mM NaCl, 5 mM MgCl2, 5 mM TCEP, 20°C, RNA fixed at 1 µM, recombinant protein, protein details: N-terminal 9xHis, TEV-cleaved, label: 5'-fluorescein, letters put together from the description.

Another data set concerns the target T3, ΔhPus1p (Homo sapiens) (UniProt Q9Y606).
T3 sequence (looked up): T1 sequence (looked up) with A64D
As to conditions: 5-fluorouridine at U206-equivalent position (index in oligo not given), 10 mM HEPES pH 7.0, 150 mM NaCl, 5 mM MgCl2, 5 mM TCEP, 20°C, RNA fixed at 1 µM, recombinant protein, residues 83-394, protein details: N-terminal 9xHis, TEV-cleaved, label: 5'-fluorescein, letters put together from the description.

Changes are numbered by the printed parent chain. The exact form of at least one protein or probe is not confirmed. Where a protein sequence is shown, tags need not be part of it.

Take “GCCCCAAUGGGGUUCGCCCCACCUGUGGG [H7 SRA truncation 2]”: the Kd turned out to be 3900 nM in data set [1], 111 nM with FL hPus1p (Homo sapiens) (n=0.8) and 94 nM in the data set with ΔhPus1p (Homo sapiens) (n=1).
Turning to GCCCCAAUACCUGUGGG [H7 SRA truncation 4], the Kd came to 96 nM with FL hPus1p (Homo sapiens) (n=0.7) and 74 nM in the data set with ΔhPus1p (Homo sapiens) (n=0.8).
For the sequence “GCCCCAAUGGGGCCUCCACCUCCUUCAAGUAAGGCUCCCAGGUCCCCACCUGUGGG [H7 SRA FL]”, the figures for the dissociation constant (Kd) in the data set with FL hPus1p (Homo sapiens) (n=1) and with ΔhPus1p (Homo sapiens) (n=1) were 219 nM and 484 nM, respectively.
For the sequence “GCCCCAAUGGGGCCUUUCGAGGUCCCCACCUGUGGG [H7 SRA truncation 1]”, the equilibrium dissociation constant (Kd) in the data set with FL hPus1p (Homo sapiens) (n=1) was determined as 103 nM; in the data set with ΔhPus1p (Homo sapiens) (n=0.8), 219 nM.
Turning to “GCCAAUGGGUUCGCCCCACCUGUG [H7 SRA truncation 3]”, the values for the equilibrium dissociation constant (Kd) with FL hPus1p (Homo sapiens) (n=1) and with ΔhPus1p (Homo sapiens) (n=0.7) were 122 nM and 95 nM, respectively.

As usually defined, the Kd is a measure of binding affinity in units of concentration.
